{
  "source": "patent US20060177444A1",
  "about": "“Concomitant drug as therapeutic agent for inflammatory bowel disease” (priority 2003, published 2006)",
  "key": {"[1]": {"test_system": "murine TNBS-induced colitis", "conditions": "single administration; J Exp Med 2001; 193: p. 827-38 and J Clin Invest 1999; 104: p. 383-9; cited from earlier work"}, "[2]": {"test_system": "murine DSS-induced colitis", "conditions": "single administration; J Exp Med 2001; 193: p. 827-38 and J Clin Invest 1999; 104: p. 383-9; cited from earlier work"}, "male Balb/c mice": {"test_system": "male Balb/c mice", "test": "TNBS-induced experimental colitis in mice, lesion length of the colon", "assay_type": "in vivo", "conditions": "single administration", "procedure": "A total of 0.08 ml of a 1:1 (v/v) mixture of 10% picrylsulfonic acid (TNBS) solution and ethanol was administered to anesthetized male Balb/c mice (Charles River Japan, Inc., Yokohama, Japan) according to previous reports (J Exp Med 2001; 193: p 827-38, J Exp Med 2001; 193: p 25-34) to thereby induce experimental colitis. The colon (large intestine) was sampled two days later, and the length of a flare site accompanied with ulcer or hyperplasia near to the lumen was measured and was defined as the lesion length. The inhibition (%) was calculated from the average lesion length of a treated group, compared with the average lesion length of a control group. The test compound suspended in a 0.5% solution of methylcellulose was orally administered to the mice via sonde once a day from two days before the beginning of colitis induction."}},
  "note": "At least one compound was matched to its structure with a doubt left.",
  "data": [
    {"smiles": "CN(CCOc1ccc(CC2SC(=O)NC2=O)cc1)c1ccccn1", "note": "(stereo not drawn) [Rosiglitazone, rosiglitazone]", "values": [
      {"measurement": "inhibition of experimental colitis, in words", "setting": "[1]", "result": "partially inhibits"},
      {"measurement": "inhibition of experimental colitis, in words", "setting": "[2]", "result": "partially inhibits"},
      {"measurement": "improvement of colitis, in words", "setting": "male Balb/c mice", "result": "partially improves colitis"}
    ]}
  ]
}
